Source: PMC12040169 (PLOS Biology, 2025)
The other results are listed elsewhere or left out.

Each molecule was assayed on T1, CTL2-GFP (C. trachomatis L2/434/Bu, GFP-expressing). Settings: bulk GFP, single well; 28.5 h, 10 µM; inhibitor.
T1 construct: L2/434/Bu, GFP-expressing
Set-up: species or system HeLa; Intracellular C. trachomatis growth in HeLa cells, bulk GFP fluorescence relative to DMSO

SMILES | % of control remaining [%]
COc1ccc(C(F)(F)F)cc1N [CBK038366] | 168.305
O=C1CCCN1CCCNC(=O)N1CCN(CCc2ccccc2)CC1 [CBK158932] | 168.797
CC(CN(C)C(=O)Cn1cccc(C(=O)Nc2ccc(F)cc2)c1=O)c1ccccc1 (centres unmarked) [CBK286065] | 110.798
CC(=O)N1c2ccc(C(O)CN3CCCC(C)C3)cc2CC1C (centres unmarked) [CBK282922] | 112.168
CC(C)(CN)CN(Cc1ccc(Cl)cc1Cl)C(=O)NCCc1c[nH]c2ccccc12 [CBK000460C] | 146.339
CC(=O)NC1CCN(c2nc(N(C)C)nc3c2CCN(C(C)=O)C3)CC1 [CBK307079] | 111.164
Cc1ccccc1-n1ncc2c(=O)n(Cc3ccccc3)cnc21 [CBK287690] | 86.0861
CCOC(=O)c1[nH]c2ccccc2c1NC(=O)c1ccc(Cl)c(C)c1 [CBK160146] | 131.484
O=C(NCC(c1ccccc1)N1CCOCC1)c1cnc(-c2ccc(F)cc2)c(-c2ccco2)c1 (centres unmarked) [CBK037531] | 188.327
CCOc1ccccc1C(=O)Nc1cnc(-c2cccc(OC(F)(F)F)c2)c(-c2cccnc2)n1 [CBK036952] | 74.5153
COc1ccc(N2CCN(CC(=O)Nc3ccc(Cl)cc3C(=O)c3ccccc3)CC2)cc1 [CBK265743] | 106.245
Cc1cc(C)c(OCCOCCN2CCNCC2)c(Br)c1 [CBK266079G] | 151.619
Cc1cc(N2CCN(C(=O)c3c[nH]c(=O)[nH]3)CC2)nc(C(C)C)n1 [CBK296681] | 107.049
COc1ccc(NC2=CC(=O)CC(c3ccc(C)cc3)C2)c(OC)c1 (centres unmarked) [CBK264845] | 90.2761
Cc1cc2nc(SCCNC(=O)c3ccc(Cl)cc3)nc(C)c2cc1C [CBK266223] | 140.452
COc1ccc(-c2ccc(OC)cc2C(=O)Nc2ccc(Cn3cncn3)cc2)cc1 [CBK285588] | 111.523
O=C(CNC(=O)c1ccccc1)N/N=C/c1ccc(Br)cc1 [CBK260957] | 104.31
CC1(C)NC(=O)N(CCCC(=O)NCc2coc(-c3cccs3)n2)C1=O [CBK237157] | 120.382
CC1CC(N(C(=O)c2cccc(Br)c2)c2ccccc2)c2ccccc2N1 (centres unmarked) [CBK262966] | 117.454
O=C1c2ccc(OCCOc3ccc4c(c3)C(=O)N(c3ccc(O)cc3)C4=O)cc2C(=O)N1c1ccc(O)cc1 [CBK262668] | 116.116
CC(C)Oc1ccc(C(F)(F)F)cc1N [CBK028895C] | 114.402
CC[C@H](Cn1c(=O)oc2ccccc21)NC(=O)Cc1ccsc1 [CBK284543] | 125.485
Cc1ccc(-c2n[nH]c(=S)n2CCC(=O)N2CCC(c3c[nH]c4ccccc34)CC2)cc1 [CBK296739] | 122.578
O=C1/C(=C/c2c(NCCc3ccccc3)nc3ccccn3c2=O)SC(=S)N1Cc1ccco1 [CBK264674] | 111.941
COc1ccc([N+](=O)[O-])cc1NC(=O)CSCc1ccc(Br)cc1 [CBK268272] | 149.35

SMILES | % of control remaining [%]
O=C(c1ccco1)N1CCN(C(=O)c2ccco2)CC1 [CBK068272] | 116.469
N[C@@H]1CCCN(C(=O)C2CC2)[C@H]1c1ccccc1F [CBK281563] | 102.076
CCCC(=O)c1ccc(S(=O)(=O)N2CCCN(Cc3c[nH]nc3-c3ccccc3)CC2)cc1 [CBK062916] | 104.96
COc1ccc(CC(=O)N2CCCC(c3cc4ncccc4[nH]3)C2)cc1 (centres unmarked) [CBK283418] | 113.502
CCNc1cc(N2CCN(C)CC2)ccc1NS(=O)(=O)c1ccc(F)cc1F [CBK001496C] | 110.636
COc1ccc(C(O)CNC(C)C)c2c(C)c(C)oc12 (centres unmarked) [CBK011885C] | 135.523
CC(SCC(=O)Nc1ccc(F)cc1)c1nc2ccccc2c(=O)[nH]1 (centres unmarked) [CBK269200] | 85.6196
CCC1CCCCN1C(=O)c1c(Cl)cccc1Cl (centres unmarked) [CBK081303] | 119.619
COCCCNCC#CCOc1ccccc1OC [CBK267419G] | 116.902
O=C(NCCN1CCC(O)(c2ccc(F)cc2)CC1)c1cccs1 [CBK283163] | 84.193
Nc1ccc2ccc(Cl)nc2n1 [CBK039198] | 88.3122
O=C(O)C1C2C=CC(O2)C1C(=O)NCC1CCCO1 (centres unmarked) [CBK286917] | 103.281
COc1cc(C#N)ccc1Oc1ccc([N+](=O)[O-])cc1C(F)(F)F [CBK002544] | 97.0671
Cc1ccc([N+](=O)[O-])cc1NC(=O)CN(Cc1ccc(Cl)cc1)S(C)(=O)=O [CBK267981] | 127.929
COC(=O)c1ccc(Cl)cc1N(Cc1c(F)cccc1Cl)S(C)(=O)=O [CBK021351] | 102.418
CCOCCNS(=O)(=O)c1ccc(C(C)(C)CC)cc1 [CBK044655] | 126.033
O=C(c1cccnc1)N1CCN(Cc2cccc([N+](=O)[O-])c2)CC1 [CBK263020] | 86.4049
CC(C)Cn1c(=O)[nH]c2ncc(-c3cncnc3)nc21 [CBK064177] | 134.102
COc1ccc(CC(=O)NCc2nc(-c3ccc(OC)cc3)no2)cc1 [CBK270043] | 120.206
CCC(C(=O)Nc1cc(OC)c(OC)cc1C(=O)O)c1ccccc1 (centres unmarked) [CBK266794] | 166.113
COc1ccccc1Oc1nnnn1-c1ccc(C(N)=O)cc1 [CBK267988] | 125.815
Cn1nccc1C(=O)Nc1nc(-c2ccccc2)cs1 [CBK287833] | 103.639
CC(C)c1ccc(S(=O)(=O)n2c(=O)n(CCc3c[nH]c4ccccc34)c3ccccc32)cc1 [CBK106518] | 113.237
Cn1c(N2CC[C@H](O)C2)nc2cc(C(=O)NC[C@@H]3CCCO3)ccc21 [CBK307433] | 90.5531
Cc1ccc(S(=O)(=O)NC(=O)N(Cc2ccccc2)Cc2ccco2)cc1 [CBK269524] | 124.323

Entries from the list above with a COOH group, in the order listed:
SMILES | % of control remaining [%]
O=C(O)C1C2C=CC(O2)C1C(=O)NCC1CCCO1 (centres unmarked) [CBK286917] | 103.281
CCC(C(=O)Nc1cc(OC)c(OC)cc1C(=O)O)c1ccccc1 (centres unmarked) [CBK266794] | 166.113
